PubChem BioAssay AID1259307 | Sanger Institute | 2017

Purpose: 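Identify kinases needed for SW620 growth or enhancing BYL719, cetuximab or trametinib effects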 (primary screen)
System: SW620 colorectal cancer cells
Knock-down reagent: siRNA pool against human genes
Treatment: anchor drugs BYL719 at 1 µM, cetuximab at 5 µg/ml or trametinib at 10 nM, each beside a DMSO vehicle arm
Measurement: 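Per-well viability versus non-targeting control pool, replicate-averaged, robust z-score from controls; synergy scores for BYL719 1 µM, cetuximab 5 µg/ml, trametinib 10 nM against DMSO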
Direction: viability robust z-score, no drug and viability vs control, no drug: higher = more viable cells
Hit rule: 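Essential when the viability robust z-score without drug is under -3; synergy scores are ignored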
Meaning of the calls: active = essential (lethal alone); inactive = no change alone
The whole screen tested 794 reagents; shown is an unselected part. 15 of them (1.9%) count as active. 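Calls reflect lethality without any drug; synergy scores did not enter the calls.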 Unmarked entries are inactive. Viability is capped at 1. Not all columns of the deposit are shown. No sequences are given here. The record does not give: the amount of reagent, the time to read-out.

For VRK2 (VRK serine/threonine kinase 2), the entry reads viability robust z-score, no drug 0.403; viability vs control, no drug 0.969.
After knock-down of PFKP (phosphofructokinase, platelet), the record shows viability robust z-score, no drug -0.359; viability vs control, no drug 0.899.
For MARK4 (microtubule affinity regulating kinase 4) the deposit lists viability robust z-score, no drug 0.736; viability vs control, no drug 1.
Depletion of TK2 (thymidine kinase 2) resulted in: viability robust z-score, no drug 0.175; viability vs control, no drug 0.948.
CDK13 (cyclin dependent kinase 13) showed viability robust z-score, no drug 0.736; viability vs control, no drug 1.
Against RPS6KL1 (ribosomal protein S6 kinase like 1) the deposit lists viability robust z-score, no drug 0.256; viability vs control, no drug 0.956.
Knock-down of CDKL1 (cyclin dependent kinase like 1) gave: viability robust z-score, no drug -0.494; viability vs control, no drug 0.886.
SRPK1 (SRSF protein kinase 1) gave viability robust z-score, no drug -1.18; viability vs control, no drug 0.823.
With knock-down of PHKB (phosphorylase kinase regulatory subunit beta) the results were viability robust z-score, no drug 0.0375; viability vs control, no drug 0.936.
With knock-down of LYN (LYN proto-oncogene, Src family tyrosine kinase), the screen gave viability robust z-score, no drug 0.736; viability vs control, no drug 1.
Against ACVR1B (activin A receptor type 1B) the deposit lists viability robust z-score, no drug 0.736; viability vs control, no drug 1.
TEX14 (testis expressed 14, intercellular bridge forming factor) showed viability robust z-score, no drug 0.478; viability vs control, no drug 0.976.
Silencing of PGK1 (phosphoglycerate kinase 1) resulted in: viability robust z-score, no drug -3.04 (active); viability vs control, no drug 0.652.
For MET (MET proto-oncogene, receptor tyrosine kinase), the values are viability robust z-score, no drug 0.64; viability vs control, no drug 0.991.
With knock-down of PIK3R2 (phosphoinositide-3-kinase regulatory subunit 2), the record shows viability robust z-score, no drug -1.14; viability vs control, no drug 0.827.
CILK1 (ciliogenesis associated kinase 1) scored viability robust z-score, no drug 0.736; viability vs control, no drug 1.
For STK11 (serine/threonine kinase 11), the entry reads viability robust z-score, no drug -1.01; viability vs control, no drug 0.839.
After knock-down of TRPM7 the results were viability robust z-score, no drug 0.462; viability vs control, no drug 0.975.
After knock-down of BRDT (bromodomain testis associated), the screen gave viability robust z-score, no drug -1.57; viability vs control, no drug 0.788.
Depletion of RFK (riboflavin kinase) gave: viability robust z-score, no drug 0.736; viability vs control, no drug 1.
GRK1 (G protein-coupled receptor kinase 1) gave viability robust z-score, no drug -0.145; viability vs control, no drug 0.919.
Silencing of TP53 (tumor protein p53) resulted in: viability robust z-score, no drug 0.736; viability vs control, no drug 1.
Against XYLB (xylulokinase), the values are viability robust z-score, no drug -0.214; viability vs control, no drug 0.912.
CDKN2B (cyclin dependent kinase inhibitor 2B) gave viability robust z-score, no drug -0.356; viability vs control, no drug 0.899.
CSF1R (colony stimulating factor 1 receptor) showed viability robust z-score, no drug 0.736; viability vs control, no drug 1.
For TYK2 (tyrosine kinase 2), the values are viability robust z-score, no drug -0.209; viability vs control, no drug 0.913.
Depletion of STK36 (serine/threonine kinase 36) gave: viability robust z-score, no drug 0.736; viability vs control, no drug 1.
ACVRL1 (activin A receptor like type 1) showed viability robust z-score, no drug 0.736; viability vs control, no drug 1.

Reagents listed above marked active (1):
PGK1 (phosphoglycerate kinase 1) — viability robust z-score, no drug = -3.04 (active); viability vs control, no drug = 0.652
